{"sequences": {"note": "Amino acid sequences for entries named in this document (tags omitted). A change or cut given only in a name is not applied to a line headed by its entry.", "UniProt Q9XUB2": "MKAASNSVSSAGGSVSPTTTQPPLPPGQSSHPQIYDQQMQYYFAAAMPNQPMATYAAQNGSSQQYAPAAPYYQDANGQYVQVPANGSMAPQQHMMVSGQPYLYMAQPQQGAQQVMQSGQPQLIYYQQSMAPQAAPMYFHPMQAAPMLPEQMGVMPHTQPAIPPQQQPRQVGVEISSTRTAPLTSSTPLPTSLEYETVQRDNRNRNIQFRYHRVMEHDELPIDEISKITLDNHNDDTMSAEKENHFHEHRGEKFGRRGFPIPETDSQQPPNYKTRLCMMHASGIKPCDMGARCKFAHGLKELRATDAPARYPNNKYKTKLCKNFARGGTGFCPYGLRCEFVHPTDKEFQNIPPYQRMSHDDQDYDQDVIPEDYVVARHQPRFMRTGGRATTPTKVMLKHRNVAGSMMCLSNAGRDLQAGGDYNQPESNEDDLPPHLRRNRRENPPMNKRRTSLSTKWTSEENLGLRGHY"}, "source": "PubChem BioAssay AID493250", "about": "(Broad Institute, 2011)", "note": "Inconclusive results, whose numbers are uncertain, are shown with a selection of clear calls. Calls of active or inactive are those of the source.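 The calls were made as follows: active = signal decrease with fitted half-maximal dose at or below ten times the highest valid tested dose; inconclusive = poor fit, or flat fit at 30 to 70% inhibition; inactive = the rest.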"}
{"biological_target": "Zinc finger protein mex-5 (Caenorhabditis elegans) (UniProt Q9XUB2)", "assay": "MEX-5 zinc finger-RNA interaction blockers – biochemical, fluorescence polarization, C. elegans, cherry-picked, round 3, dose response (AID 493250);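 also: 0% = DMSO neutral control and -100% = 5 µM unlabeled TCR2 competitor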", "details": "purified MEX-5-MBP, FITC-TCR2 RNA fluorescence polarization; at 10 µM (top of the series)"}
{"molecule": "O=c1c2ccccc2nc(/C=C/c2ccc([N+](=O)[O-])cc2)n1CCCO", "activity change, negative = inhibition": "inconclusive: -43.2%"}
{"molecule": "CC(=O)Nc1ccc(/C=N/NC(=O)CNS(=O)(=O)c2ccccc2)cc1", "activity change, negative = inhibition": "inactive: 0.216%"}
{"molecule": "CCOC(=O)Cc1csc(NC(=O)c2sc3nc4c(C)cc(C)cc4cc3c2N)n1", "activity change, negative = inhibition": "inconclusive: -19.6%"}
{"molecule": "Cc1snc2sc(C(=O)c3ccc(Br)cc3)c(N)c12", "activity change, negative = inhibition": "inconclusive: -21.9%"}
{"molecule": "Cc1cccn2c(=O)c3cc(C#N)c(=NC(=O)c4cccs4)n(CC(C)C)c3nc12", "activity change, negative = inhibition": "inconclusive: -17.5%"}
{"molecule": "CC[C@H](C)/C=C(C)/C=C/C1=CC2=CC(=O)[C@]3(C)OC(=O)[C@@H](C(C)=O)[C@@H]3C2=CO1", "activity change, negative = inhibition": "inconclusive: -19.8%"}
{"molecule": "Cc1nnc(-c2cccc(Br)c2)c2cn(-c3cccc(Br)c3)nc12", "activity change, negative = inhibition": "inconclusive: -51.8%"}
{"molecule": "Cc1c(Cl)cccc1NC(=O)C(=O)NNS(=O)(=O)c1ccc(F)cc1", "activity change, negative = inhibition": "inactive: 7.82%"}
{"molecule": "CC(=Nc1ccc(C)cc1)c1sc2ccccc2c1O", "activity change, negative = inhibition": "inconclusive: -45.7%"}
{"molecule": "CCCc1cc(C(=O)Cc2ccc(C(=O)OCC)o2)c(O)cc1O", "activity change, negative = inhibition": "inactive: -0.656%"}
{"molecule": "CN1CCc2c(sc(NC(=O)c3ccc(S(=O)(=O)N4CCCCCC4)cc3)c2C(N)=O)C1", "activity change, negative = inhibition": "inconclusive: -200%"}
{"molecule": "COC(=O)C1=C(C)N(c2ccc(C)c(C)c2)/C(=C/c2cccs2)C1=O", "activity change, negative = inhibition": "inconclusive: -27.6%"}
{"molecule": "COc1ccc(NS(=O)(=O)c2cccc(C(=O)NNC(=O)c3ccccc3O)c2)cc1", "activity change, negative = inhibition": "inconclusive: -42.9%"}
{"molecule": "O=C(N/N=C/c1c(O)ccc2ccccc12)c1ccc[n+](CCO)c1", "activity change, negative = inhibition": "inactive: 16.6%"}
{"molecule": "Cc1c(Br)c(=O)oc2c(Br)c(O)c(O)cc12", "activity change, negative = inhibition": "inactive: 0.719%"}
{"molecule": "COc1ccc(NS(=O)(=O)c2ccc(C)c(C(=O)NNC(=O)c3ccccc3O)c2)cc1", "activity change, negative = inhibition": "inconclusive: -50.9%"}
